Several values for one entry are separate records, joined by “and”; a condition that tells them apart may be missing. Identical values can stand only once. Counter-ions that a name gives are not always drawn. ± gives the standard deviation of the averaged measurements. The list shows a part of the results. Plates or batches differ in their baseline, so values are only roughly comparable.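 Culture-activated primary human stellate myofibroblasts, where regained lipid droplets signal inactivation. Value: share of Hoechst-counted cells above a per-plate Bodipy cutoff, in duplicate wells, with DMSO negative and nortriptyline positive controls on each plate. Hits: a control-normalized score above the plate's top-tenth-percentile nortriptyline wells, or one of a plate's three best wells. Final well concentrations are not given.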
Test system: primary human hepatic stellate cells (donor 1)
Assay: percent Bodipy-positive cells; higher = more lipid droplet accumulation
Conditions: 48 h
[1] = library stock concentration: 3.33 mM
[2] = library stock concentration: 10 mM
[3] = library stock concentration: 1 mM

SMILES: CCCC(=O)O[C@]1(C(=O)COC(C)=O)CC[C@H]2[C@@H]3C[C@H](F)C4=CC(=O)C=C[C@]4(C)[C@@]3(F)[C@@H](O)C[C@@]21C [Difluprednate]
- percent Bodipy-positive cells [1]: 18.8 ± 6.3%
- percent Bodipy-positive cells [2]: 18.7 ± 7.7%

SMILES: Cn1nnnc1SCC1=C(C(=O)O)N2C(=O)[C@@H](NC(=O)[C@H](O)c3ccccc3)[C@H]2SC1 [Cefamandole sodium salt]
- percent Bodipy-positive cells: 5.93 ± 0.48%

SMILES: COCCOc1ccc2c(c1)ncn2-c1ccc2cccc(N3CCC(N)CC3)c2n1
- percent Bodipy-positive cells [2]: 98.58 ± 0.89%

SMILES: Nc1ccc(C(=O)NCC(=O)O)cc1 [4-Aminohippuric Acid]
- percent Bodipy-positive cells [1]: 10.3 ± 3%
- percent Bodipy-positive cells [2]: 28.4 ± 11%

SMILES: Nc1ccc(C(=O)NCC(=O)O)cc1 [Aminohippuric acid]
- percent Bodipy-positive cells: 10.1 ± 4.6%
- percent Bodipy-positive cells [2]: 39.7 ± 5%

SMILES: COc1ccc(NS(=O)(=O)c2ccc(N)cc2)nn1 [Sulfamethoxypyridazine]
- percent Bodipy-positive cells: 9.08 ± 5.5%
- percent Bodipy-positive cells [1]: 12.8 ± 3.9%
- percent Bodipy-positive cells (library stock concentration: 7.1 mM): 17.1 ± 8.6%
- percent Bodipy-positive cells [2]: 35.3% and 28.8%

SMILES: CC1(C)OC(=O)NC1=O [Dimethadione]
- percent Bodipy-positive cells: 8.41 ± 0.58%
- percent Bodipy-positive cells [2]: 10.7 ± 0.61%
- percent Bodipy-positive cells (library stock concentration: 15.5 mM): 4 ± 0.52%

SMILES: N=C(N)NCC1COC2(CCCCC2)O1 (configuration not stated) [Guanadrel sulfate]
- percent Bodipy-positive cells: 9.29 ± 0.25%

SMILES: N[C@@H](C(=O)O)c1ccc(C(=O)O)c(C(=O)O)c1
- percent Bodipy-positive cells [2]: 7.46 ± 1.1%

SMILES: CNc1nc(Nc2cnn(C3CCN(C4COC4)CC3F)c2Cl)ncc1C(F)(F)F (configuration not stated)
- percent Bodipy-positive cells [1]: 21.5 ± 7.5%
- percent Bodipy-positive cells [2]: 31.8 ± 6.5%

SMILES: CC(C)(C#N)c1ccc(N2C(=O)OCc3cnc4ccc(-c5cnc6ccccc6c5)cc4c32)cc1
- percent Bodipy-positive cells [1]: 61.1 ± 11%
- percent Bodipy-positive cells [2]: 87 ± 0.89%

SMILES: CC(=O)Oc1cccc2c1C(=O)c1c(OC(C)=O)cc(C(=O)O)cc1C2=O [Diacerein]
- percent Bodipy-positive cells [1]: 10.8 ± 1.4%
- percent Bodipy-positive cells [2]: 34 ± 0.66%

SMILES: Cc1ncc(CSSCc2cnc(C)c(O)c2CO)c(CO)c1O
- percent Bodipy-positive cells [2]: 42.33 ± 0.31%

SMILES: O=C(O)c1ccc2ccccc2c1O.OCc1cc(C(O)CNCCCCCCOCCCCc2ccccc2)ccc1O (configuration not stated) [Salmeterol xinafoate]
- percent Bodipy-positive cells [2]: 91.9 ± 2%

SMILES: CCCCC(C)(O)C/C=C/[C@H]1[C@H](O)CC(=O)[C@@H]1CCCCCCC(=O)OC (some centres not stated) [Misoprostol]
- percent Bodipy-positive cells [3]: 16.5 ± 3.8%
- percent Bodipy-positive cells (library stock concentration: 5.2 mM): 10.4 ± 0.38%

SMILES: CCCCC(C)(O)C/C=C/[C@H]1[C@H](O)CC(=O)[C@@H]1CCCCCCC(=O)OC (some centres not stated) [Misoprostol (free acid)]
- percent Bodipy-positive cells [3]: 17.9 ± 1.9%

SMILES: COc1ccc2c(c1)c(CC(=O)NCCc1ccccc1)c(C)n2C(=O)c1ccc(Cl)cc1 [N-(2-phenylethyl)-Indomethacin amide]
- percent Bodipy-positive cells [3]: 13.8 ± 1.8%

SMILES: NC(C(=O)O)c1cc(O)cc(O)c1 (racemic)
- percent Bodipy-positive cells [2]: 10.2 ± 1.6%

SMILES: CCCCCCCCCCCCCCCCCCCC(=O)NCCO [Arachidoyl Ethanolamide]
- percent Bodipy-positive cells [3]: 9.6 ± 1.1%

SMILES: N=C(N)NC(=N)N1CCOCC1
- percent Bodipy-positive cells [2]: 27.1 ± 2.5%

SMILES: N=C(N)NC(=N)N1CCOCC1 [Moroxydine HCl]
- percent Bodipy-positive cells [1]: 4.09 ± 0.62%
- percent Bodipy-positive cells (library stock concentration: 9.6 mM): 7.66 ± 2.6%
- percent Bodipy-positive cells [2]: 12.7 ± 2.6%

SMILES: O=c1oc(Cl)c(Cl)c2ccccc12 [3,4-Dichloroisocoumarin]
- percent Bodipy-positive cells [2]: 100%

SMILES: O=c1oc(Cl)c(Cl)c2ccccc12 [3,4-dichloroisocoumarin]
- percent Bodipy-positive cells (library stock concentration: 23.3 mM): 97.7 ± 1.3%

SMILES: N[C@H]1C(O)O[C@H](CO)[C@@H](O)[C@@H]1O (some centres not stated) [Glucosamine hydrochloride]
- percent Bodipy-positive cells (library stock concentration: 9.3 mM): 3.48 ± 1.8%
- percent Bodipy-positive cells [2]: 17.4 ± 0.5%

SMILES: C=C1C[C@H]2[C@@H]3C=C(C)C4=CC(=O)CC[C@]4(C)[C@H]3CC[C@]2(C)[C@@]1(OC(C)=O)C(C)=O [Melengestrol acetate]
- percent Bodipy-positive cells (library stock concentration: 5 mM): 6.69 ± 5%

SMILES: C=C1C[C@H]2[C@@H]3C=C(C)C4=CC(=O)CC[C@]4(C)[C@H]3CC[C@]2(C)[C@@]1(OC(C)=O)C(C)=O
- percent Bodipy-positive cells [2]: 44.5 ± 3.7%

SMILES: CC(C)C[C@@H](C=O)NC(=O)[C@H](CC(C)C)NC(=O)[C@H](CC(C)C)NC(=O)OCc1ccccc1
- percent Bodipy-positive cells [1]: 91.8 ± 10%
- percent Bodipy-positive cells [2]: 99.22 ± 0.11%

SMILES: CS(=O)(=O)NC(=O)CCC/C=C\C[C@H]1C(=O)C[C@@H](O)[C@@H]1/C=C/[C@@H](O)COc1ccccc1 [Sulprostone]
- percent Bodipy-positive cells [3]: 16.6 ± 1.1%

SMILES: Cc1ccc2c(Cl)cc(Cl)c(O)c2n1
- percent Bodipy-positive cells [2]: 28.8 ± 1.1%

SMILES: Cc1ccc2c(Cl)cc(Cl)c(O)c2n1 [Chlorquinaldol]
- percent Bodipy-positive cells [1]: 15.9 ± 11%
- percent Bodipy-positive cells [2]: 58.2 ± 6.2%

SMILES: N=C(N)N/N=C/c1c(Cl)cccc1Cl [Guanabenz Acetate]
- percent Bodipy-positive cells [1]: 19.45 ± 0.13%
- percent Bodipy-positive cells [2]: 79.9 ± 9.6%

SMILES: N=C(N)N/N=C/c1c(Cl)cccc1Cl [Guanabenz acetate]
- percent Bodipy-positive cells: 53.6 ± 5.8%
- percent Bodipy-positive cells (library stock concentration: 6.9 mM): 27.1 ± 9%
- percent Bodipy-positive cells (library stock concentration: 8.7 mM): 29.9 ± 2.6%
- percent Bodipy-positive cells [2]: 42.9% and 28%

SMILES: O=C(O)/C=C\C(=O)O.O=C(O)/C=C\C(=O)O.c1cc(CN2CCCCC2)cc(OCCCNc2nc3ccccc3s2)c1
- percent Bodipy-positive cells [2]: 96.6 ± 1.2%

SMILES: N[C@H](C(=O)O)[C@H](OCc1ccccc1)C(=O)O (racemic)
- percent Bodipy-positive cells [2]: 8.29 ± 0.66%

SMILES: OC(CCN1CCCCC1)(c1ccccc1)C1CCCCC1 (configuration not stated) [Trihexyphenidyl hydrochloride]
- percent Bodipy-positive cells (library stock concentration: 5.9 mM): 46.4 ± 4.7%

SMILES: OC(CCN1CCCCC1)(c1ccccc1)C1CCCCC1 (configuration not stated) [Trihexyphenidyl-D,L Hydrochloride]
- percent Bodipy-positive cells: 34.8 ± 0.56%

Reference: the supplement of paper PMC9135407
